The record followed here is patent US5135936A, “Isomers of 1-azabicyclo[2.2.2]oct-3-yl methyl 1,4-dihydro-2,6-dimethyl-4-(3-nitrophenyl)-3,5-pyridinediacarboxylic and their use as calcium antagonists” (Marion Merrell Dow Inc., priority 1991, dated 1992).

The test system of the data set is [3H]-Nitrendipine Binding in Rat Cortical Membranes. Kind of data set: Inhibition of [3H]-Nitrendipine Binding in Rat Cortical Membranes. The note with it: displacement curve. As to the method: [3H]-Nitrendioine Bindino in Rat Cortex
Animals were decapitated and the cortical tissue was dissected, weighed and polytroned in about 20 volumes (w/v) of ice cold buffer ([…] TRIS HCl, pH 7.5). The tissue was then washed 3 times via centrifugation (20,000 rpm for 10 min at 4° C.) with subsequent resuspension in fresh buffer. The final pellet was resuspended prior to the assay at 22.5 mg/mL […]. Incubations were performed at room temperature for 90 min in each assay. These incubations were done in triplicate in a final assay volume of 2.0 mL. Non-specific binding was determined by the addition of 1 uM nifedipine for the [3H]-nitrendipine assay each to triplicate set of tubes. Reactions in each assay were terminated by filtration using a Brandel Cell Harvester followed by washing with ice cold buffer.
For preliminary evaluations in each assay, all compounds were examined at four log concentrations (1 nM-1 uM). full displacement curves were generated on all compounds showing inhibition of specific binding of 50% or greater at a 1 uM drug concentration. Standard reference compounds were included and evaluated in each assay. Analysis of data was done using both the EBDA Scafit program and HP-11C linear regression.

SMILES strings stand for the structures.

`COC(=O)C1=C(C)NC(C)=C(C(=O)O[C@H]2CN3CCC2CC3)[C@@H]1c1cccc([N+](=O)[O-])c1` [(R,R)-I, (R,R)-1-Azabicyclo[2.2.2]oct-3-yl methyl 1,4-dihydro-2,6-dimethyl-4-(3-nitrophenyl)-3,5-pyridinedicarboxylate] came in with a Slope of 1.02. In the case of `COC(=O)C1=C(C)NC(C)=C(C(=O)O[C@H]2CN3CCC2CC3)[C@H]1c1cccc([N+](=O)[O-])c1` [(R,S)-I, (R,S)-1-Azabicyclo[2.2.2]oct-3-yl methyl 1,4-dihydro-2,6-dimethyl-4-(3-nitrophenyl)3,5-pyridinedicarboxylate], the Slope came out at 0.99.
